This is one part of the list. Rule as the data show it: active = 2 or more and inactive = the rest. Single values are uncertain here, since repeats match poorly.

This experiment relates to Lgr5 (MarsCy1-Lgr5-EGFP, U2OS). Nature of the experiment: cell-surface Lgr5 expression (SCi1 fluorescence, background-subtracted) relative to WT DMSO (fold of DMSO control); higher = more Lgr5 at the plasma membrane. As to conditions: U2OS MarsCy1-Lgr5-EGFP stable; treatment time: overnight; library: ActiProbe-5K (TimTec); 25 µM.
As to `CN(C)c1ccc(/C=N\c2ccc(S(N)(=O)=O)cc2)cc1`, the “cell-surface Lgr5 expression” value is inactive: 1.28. In the case of `Cc1c(C2CC(C(F)(F)F)n3nccc3N2)cnn1C` (stereo unspecified) it was inactive: 1.19; in that of `FC(F)(F)c1ccc(-c2nnc3cccc(Cl)n23)cc1`, inactive: 1.34; in that of `S=c1[nH]cc(-c2ccc(Cl)cc2)n1C12CC3CC(CC(C3)C1)C2`, inactive: 1.71. In the case of `N#C/C(=C\c1cc(Br)cs1)C(N)=O` it was inactive: 1.09; in that of `Cc1cc(C)n2nnnc2n1`, inactive: 1.31; in that of `Cc1ccc(/C=N/n2cnnc2)s1`, inactive: 0.886. As for `O=C(O)c1cc([N+](=O)[O-])[nH]n1`, the “cell-surface Lgr5 expression” value was inactive: 1.12. In the case of `c1coc(CCC2NCCn3cccc32)c1` (stereo unspecified) it was inactive: 1.2; in that of `S=C(SCc1cccs1)N1CCOCC1`, inactive: 0.195; in that of `CCCCCCCCNc1nc(NCCC)nc(OCC)n1`, inactive: 1.12. `Fc1ccc(NC(=S)NCC2CCCO2)cc1` (stereo unspecified): the “cell-surface Lgr5 expression” value was inactive: 1.06. The value for `CC(=N/Oc1nc(nc(n1)N(C)C)N(C)C)/C` was inactive: 1.61. For the molecule `Cc1cc(-c2oc(N)c(C#N)c2-c2cc(C)sc2C)c(C)s1`, the “cell-surface Lgr5 expression” value was inactive: 0.991. In the case of `O=C(O)C1(N2CCOCC2)CCNCC1` it was inactive: 1.5; in that of `CC1CC(=O)C2CCCCC2S1` (stereo unspecified), inactive: 0.892. On to `CCCC(C)NC(=O)N1CCOCC1` (stereo unspecified), for which the “cell-surface Lgr5 expression” value was inactive: 0.996. In the case of `N#Cc1c(C(F)(F)F)cc(-c2ccccc2)nc1SC(CCC1CC1)c1ccccc1` (stereo unspecified) it was inactive: 1.03.

Consider `Cc1nc2c(oc3ccccc32)c(=O)o1`, for which the “cell-surface Lgr5 expression” value was inactive: 1.22. Regarding `Brc1ccc2ncccc2c1`, the “cell-surface Lgr5 expression” value was inactive: 1.26.

As for `O=S1(=O)N=C(N/N=C/c2ccccn2)c2ccccc21`, the “cell-surface Lgr5 expression” value was inactive: 0.702. For `O=Cc1csc(Cn2cnc([N+](=O)[O-])n2)c1`, the “cell-surface Lgr5 expression” value is inactive: 0.957. In the case of `COCCCN1C(=O)/C(=C\c2cnn(C)c2)N=C1S` it was inactive: 1.13; in that of `FC(F)Oc1cccc2cccnc12`, inactive: 1.19; in that of `CN(C)S(=O)(=O)c1ccc2c(c1)c(=O)nc1ccccn12`, inactive: 0.906. The value for `COc1cc(OC)c(OC)cc1/C=N/n1c(S)nnc1-c1ccncc1` was inactive: 0.878. In the case of `S(/C=C(\Cl)Cl)(c1cc([N+]([O-])=O)ccc1)(=O)=O` it was active: 2.04; in that of `Clc1ccc(/C=N/n2cnnc2)c(Cl)c1`, inactive: 0.888. For `CC[n+]1c(/C=C2/C=Cc3ccc(C)cc3N2C)sc2ccccc21`, the “cell-surface Lgr5 expression” value was inactive: 0.912.

Take `CN(C)C(=O)C1OC(C)(C)O[C@H]1C(=O)N(C)C` (stereo partly specified): the “cell-surface Lgr5 expression” value is inactive: 0.941. In the case of `O=C1OC(c2ccccc2F)=N/C1=C\c1c2ccccc2cc2ccccc12` it was inactive: 1.2.
